Measured data: PubChem BioAssay AID504804 (Drosophila RNAi Screening Center, 2011)
Test: 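Fly genes whose loss lessens doxorubicin-driven cell death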 (primary screen). Cell system: Drosophila Kc cells. Knock-down reagent: long dsRNA against Drosophila genes, 0.5 µg dsRNA per well. Duration: 96 h (48 h knock-down, then 48 h drug). Challenge: doxorubicin 5 µg/ml for 48 h, added 48 h after dsRNA. Read-out: 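Luminescent ATP counts per replicate, not normalised, reflecting viable cells after 48 h dsRNA knock-down followed by 48 h of 5 µg/ml doxorubicin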. Scale: raw ATP luminescence: higher = more viable cells, protection from doxorubicin. Call rule: 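Active when both duplicate wells lie at least 2 SD above the plate mean and protection is confirmed by rescreening and independent dsRNAs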.
The deposit covers about 19,000 reagents; shown is an unselected part of those with a known target gene and a result. Of all reagents, 47 (0.25%) got an active call. 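Signals are raw, not normalised; exact z-scores behind calls not deposited; actives needed confirmation, so some wells reaching 2 SD are inactive.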 Entries without a mark were called inactive. The numbers tell different reagents against one gene apart. Names joined by + are all predicted targets of the reagent.

gene	reagent no.	raw ATP luminescence, replicate 1	raw ATP luminescence, replicate 2
CG12237 (GeneID 32967)	1	2.16e5	1.98e5
CG2685 (GeneID 31259)	1	33100	32430
CG14762 (GeneID 35768)	1	92643	76237
CG14762 (GeneID 35768)	2	40440	61067
CG14632 (retired record) (GeneID 31035)	1	50240	38600
r (GeneID 32640)	1	3.78e5	3.81e5
r (GeneID 32640)	2	4.14e5	3.50e5
RpL18 (GeneID 38794)	1	73580	65670
Cht2 (GeneID 38223)	1	68893	52407
verm (GeneID 40149)	1	20813	25963
CG34253 (GeneID 5740501)	1	71410	79320
ClpP (GeneID 34402)	1	89853	61293
SCaMC (GeneID 39415)	1	32177	36253
SCaMC (GeneID 39415)	2	70110	49737
CG32639 (GeneID 318134)	1	1.97e5	2.66e5
prel (GeneID 35969)	1	62567	68013
Nurf-38 (GeneID 37922)	1	49917	43297
CG7173 (GeneID 40392)	1	14933	15763
CG31082 (retired record) (GeneID 318587)	1	1.40e5	1.38e5
Pif1A (GeneID 8674049)	1	70433	58227
Pif1A (GeneID 8674049)	2	52133	54240
l(2)37Bb (GeneID 49427)	1	62973	69943
mRpL10 (GeneID 33182)	1	1.03e5	70380
Df31 (GeneID 35418)	1	74580	59333
CLIP-190 (GeneID 35042)	1	94463	85173
CG7300 (GeneID 34472)	1	90860	74437
Lamp1 (GeneID 35411)	1	30900	29177
CG15199 (GeneID 32051)	1	4.05e5	3.42e5
CG7126 (GeneID 42202)	1	82800	89860
CG14561 (GeneID 40447)	1	60577	43603
Lgr3 (GeneID 43098)	1	42210	50710
Lgr3 (GeneID 43098)	2	47610	60210
obst-I (GeneID 317966)	1	63850	69917
CG3281 (GeneID 41445)	1	59357	30570
CG32809 (GeneID 31121)	1	2.54e5	2.91e5
CG32809 (GeneID 31121)	2	49870	58070
CG18473 (GeneID 41116)	1	68997	58180
Irp-1B (GeneID 41269)	1	60583	56747
Cpr67B (GeneID 39081)	1	39677	40423
CG12576 (GeneID 33135)	1	2.53e5	2.72e5
CG34205 (GeneID 37526)	1	79173	68153
CG15196 (GeneID 32084)	1	2.88e5	2.85e5
CG15784 (GeneID 31461)	1	34310	38060
Rbp4 (GeneID 41668)	1	97830	87850
Decay (GeneID 42008)	1	93410	76850
CG9921 (GeneID 32599)	1	1.61e5	1.94e5
RpL32 (GeneID 43573)	1	37450	35050
Lip3 (GeneID 41643)	1	81790	83160
CG9782 (GeneID 32632)	1	1.69e5	1.79e5
CG9782 (GeneID 32632)	2	2.91e5	2.62e5
Tep5Psi (GeneID 35250)	1	52907	55993
Tep5Psi (GeneID 35250)	2	50927	47950
CG17270 (GeneID 42462)	1	43663	45130
CG14106 (GeneID 39506)	1	65293	53263
CG6614 (GeneID 34583)	1	79463	68877
Muc18B (GeneID 32913)	1	3.67e5	3.40e5
CG7987 (GeneID 41768)	1	93667	37137
CG13962 (GeneID 35270)	1	43473	38157
Syt14 (GeneID 40544)	1	81093	69153
CG14089 (GeneID 40101)	1	60390	54497
TwdlN (GeneID 43207)	1	31680	39890
CG8389 (GeneID 36764)	1	61457	54827
CG8534 (GeneID 41210)	1	58937	70000
CG5281 (GeneID 41375)	1	51497	44947
m (GeneID 44835)	1	3.08e5	2.16e5
Prps (GeneID 39132)	1	1.66e5	1.27e5
Prps (GeneID 39132)	2	81873	53743
Prps (GeneID 39132)	3	85787	56423
dx (GeneID 31589)	1	25700	42290
Pp1alpha-96A (GeneID 42922)	1	62240	60270
Mcm7 (GeneID 39014)	1	47717	37270
l(3)87Df (GeneID 49762)	1	81180	66420
CG10486 (GeneID 38664)	1	58390	83947
Polr1D + DCTN6-p27	1	69883	61307
PVRAP (GeneID 38677)	1	57490	66663
PVRAP (GeneID 38677)	2	60703	66030
IFT54 (GeneID 41739)	1	83250	49580
sut3 (GeneID 44268)	1	47930	79577
E(spl)m3-HLH (GeneID 43156)	1	18440	22180
CG10584 (GeneID 40324)	1	76763	62803
CG11369 (GeneID 31675)	1	41660	44390
CG13679 (GeneID 38919)	1	45923	62033
Pkd2 (GeneID 34651)	1	76840	63517
Amacr (GeneID 35337)	1	78217	71997

Copied from the list:
Result for dx (GeneID 31589) under “raw ATP luminescence, replicate 2”: 42290
Result for Muc18B (GeneID 32913) in “raw ATP luminescence, replicate 2”: 3.40e5
Under “raw ATP luminescence, replicate 2”, E(spl)m3-HLH (GeneID 43156) reads 22180
Entry of CG34253 (GeneID 5740501) in “raw ATP luminescence, replicate 2”: 79320
Value of RpL18 (GeneID 38794) in “raw ATP luminescence, replicate 1”: 73580
Result for obst-I (GeneID 317966) under “raw ATP luminescence, replicate 1”: 63850
